# Assay results as given in article PMC7744066.
# The chains behind the UniProt entries cited, without tags or fusion partners. Where a name states a change or a piece, a line headed by the entry shows the natural chain unless it says otherwise.
# UniProt P31749: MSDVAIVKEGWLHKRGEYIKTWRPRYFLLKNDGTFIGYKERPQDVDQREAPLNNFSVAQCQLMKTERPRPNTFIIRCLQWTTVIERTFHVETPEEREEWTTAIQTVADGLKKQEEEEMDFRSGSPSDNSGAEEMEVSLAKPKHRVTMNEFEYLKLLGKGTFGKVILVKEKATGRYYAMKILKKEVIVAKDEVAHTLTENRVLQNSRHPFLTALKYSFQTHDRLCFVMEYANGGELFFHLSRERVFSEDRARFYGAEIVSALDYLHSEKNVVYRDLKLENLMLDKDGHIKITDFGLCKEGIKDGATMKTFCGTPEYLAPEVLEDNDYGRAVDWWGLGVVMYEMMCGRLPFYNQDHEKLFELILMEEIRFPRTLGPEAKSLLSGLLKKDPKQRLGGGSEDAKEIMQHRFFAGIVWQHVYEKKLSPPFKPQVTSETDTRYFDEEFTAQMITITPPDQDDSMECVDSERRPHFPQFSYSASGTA
# UniProt P67775: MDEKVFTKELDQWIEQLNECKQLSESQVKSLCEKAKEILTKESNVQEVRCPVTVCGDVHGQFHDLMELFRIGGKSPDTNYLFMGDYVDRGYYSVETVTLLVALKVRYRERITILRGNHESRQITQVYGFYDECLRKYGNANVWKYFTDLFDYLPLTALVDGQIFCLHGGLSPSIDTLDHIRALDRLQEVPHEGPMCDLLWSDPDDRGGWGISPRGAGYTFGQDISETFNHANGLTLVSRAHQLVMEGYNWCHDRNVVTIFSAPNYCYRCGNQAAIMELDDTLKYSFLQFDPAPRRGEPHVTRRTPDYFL
# UniProt P31750: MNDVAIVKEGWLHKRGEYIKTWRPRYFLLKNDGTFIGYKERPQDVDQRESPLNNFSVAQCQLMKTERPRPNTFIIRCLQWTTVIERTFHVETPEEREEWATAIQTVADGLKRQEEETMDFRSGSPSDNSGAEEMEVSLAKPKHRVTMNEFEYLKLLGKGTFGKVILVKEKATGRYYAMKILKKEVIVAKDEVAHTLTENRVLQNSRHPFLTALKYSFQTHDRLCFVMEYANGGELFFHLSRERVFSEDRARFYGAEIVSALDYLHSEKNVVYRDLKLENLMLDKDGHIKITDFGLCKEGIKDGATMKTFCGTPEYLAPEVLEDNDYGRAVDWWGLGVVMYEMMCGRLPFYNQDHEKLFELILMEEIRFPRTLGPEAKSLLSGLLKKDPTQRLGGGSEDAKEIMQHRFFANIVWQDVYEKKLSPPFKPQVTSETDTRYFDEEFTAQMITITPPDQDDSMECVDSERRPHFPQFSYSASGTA
# UniProt P63330: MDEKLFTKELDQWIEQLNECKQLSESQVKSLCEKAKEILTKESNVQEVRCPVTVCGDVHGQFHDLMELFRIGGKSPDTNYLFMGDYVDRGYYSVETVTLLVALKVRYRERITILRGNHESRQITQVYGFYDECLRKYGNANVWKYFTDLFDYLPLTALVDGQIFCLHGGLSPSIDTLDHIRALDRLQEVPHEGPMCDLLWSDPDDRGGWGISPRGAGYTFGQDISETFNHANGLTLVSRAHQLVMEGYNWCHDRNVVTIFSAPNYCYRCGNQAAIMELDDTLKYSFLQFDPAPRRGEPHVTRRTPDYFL
# Read-outs that look alike come from different tables or passages of the source. Results are given in words; binding and its absence hold for the method and conditions named. Binding seen in cells or lysates may run through a third protein. Binding calls can cover weak binding; strength is not graded here. For some of these results: Sequences can lack the tags named with a protein.
# B1: Aldob, ectopically expressed in Huh7 (tag not told for the experiment) (protein, UniProt P05062 1-364)
# chain: MAHRFPALTQEQKKELSEIAQSIVANGKGILAADESVGTMGNRLQRIKVENTEENRRQFREILFSVDSSINQSIGGVILFHETLYQKDSQGKLFRNILKEKGIVVGIKLDQGGAPLAGTNKETTIQGLDGLSERCAQYKKDGVDFGKWRAVLRIADQCPSSLAIQENANALARYASICQQNGLVPIVEPEVIPDGDHDLEHCQYVTEKVLAAVYKALNDHHVYLEGTLLKPNMVTAGHACTKKYTPEQVAMATVTALHRTVPAAVPGICFLSGGMSEEDATLNLNAINLCPLPKPWKLSFSYGRALQASALAAWGGKAANKEATQEAFMKRAMANCQAAKGQYVHTGSSGAASTQSLFTACYTY
# Columns and labels:
# [1] = molecular target: GST-Akt1 (UniProt P31749); assay: pull-down; GST pull-down: recombinant GST-Akt1 (GST as control) with whole cell lysate of Flag-PP2A-C-transfected Huh7 cells, with recombinant WT-Aldob or Aldob-R304A added; only the target purified
# [2] = molecular target: Flag-PP2A-C (UniProt P67775); assay: co-IP; lysates of Huh7 cells transfected with the indicated constructs (and siRNAs) or of LM3-Aldob cells; anti-Flag or anti-Myc affinity gel or anti-Akt1 antibody with Protein A/G beads, overnight at 4°C, washed 4 times; in some panels cells serum-starved then 0.1 μM insulin or 100 ng/ml EGF, or MK2206 (1 μM) for 24 hours
# [3] = molecular target: T1, Flag-Aldob (UniProt P05062); assay: as above
# T1 sequence: B1 chain
# [4] = molecular target: Akt1, endogenous in human liver tissue (human (endogenous in liver tissue)) (UniProt P31749); assay: co-IP; endogenous proteins in lysates of 2 pairs of human HCC tumor and adjacent normal liver tissues; anti-Aldob and anti-Akt1 IP, IgG as negative control
# [5] = molecular target: Akt1, endogenous in mouse liver (mouse (endogenous in liver tissue)) (UniProt P31750); assay: co-IP; endogenous proteins in liver tissue lysates of WT and ALDOB KO mice; anti-Aldob or anti-Akt1 antibody overnight at 4°C, Protein A/G Sepharose beads, IgG as negative control
# [6] = molecular target: Flag-PP2A-C (UniProt P67775); assay: co-IP; lysates of Huh7 cells transfected with the indicated constructs (and siRNAs) or of LM3-Aldob cells; anti-Flag or anti-Myc affinity gel or anti-Akt1 antibody with Protein A/G beads, overnight at 4°C, washed 4 times; in some panels cells serum-starved then 0.1 μM insulin or 100 ng/ml EGF, or MK2206 (1 μM) for 24 hours; remark: listed apart in the source
molecule,measurement,setting,value
Flag-PP2A-C (from UniProt P67775),binding,[1],binds
Akt1 in Huh7 lysate of S7D Fig (from UniProt P31749 1-480),binding,[2],binds
structural subunit of PP2A (PP2A-A),binding,[3],no binding
"catalytic subunit of PP2A (PP2A-C), endogenous in human liver tissue (from UniProt P67775)",binding,[4],binds
"catalytic subunit of PP2A (PP2A-C), endogenous in Huh7 (from UniProt P67775)",binding,[3],binds
"catalytic subunit of PP2A (PP2A-C), endogenous in mouse liver (from UniProt P63330)",binding,[5],binds
B1,binding,[6],binds
